PubChem BioAssay AID1053208 – Peter MacCallum Cancer Centre, 2014
The whole screen tested about 17,000 reagents; below is an unselected part. 788 of all reagents (4.7%) were called active. 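Calls rest on z-score classes alone; an extra cut-off of viability at most 70% of control was not applied to them.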 Some reagents were tested in more than one well and are listed for each. Not all columns of the deposit are shown. No sequences are given here.

Aim: 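Genes whose silencing cuts survival of bone tumour cells only with doxorubicin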 (primary screen)
Cells: mouse osteosarcoma cells, early-passage culture from an engineered mouse model of fibroblastic bone tumour
Reagent: siRNA pool against mouse genes, 40 nM
Duration: about 120 h (48 h before drug, then 72 h with drug)
Conditions: doxorubicin 100 nM for 72 h, roughly 30-40% inhibitory dose
Measurement: 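Luminescent ATP signal taken as viability with or without 100 nM doxorubicin for 72 h; mean of two wells set against non-targeting siRNA and turned into robust z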
Scale: viability z-score with doxorubicin: higher = more viable cells under doxorubicin; viability z-score without drug: higher = more viable cells with knock-down alone
Hit rule: 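Called active if knock-down leaves viability unchanged without drug (z within -2 to 2) but lowers it with doxorubicin (z at or under -2)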

What is on record for Gne [SID152273582]?
combined z-score class: no change with or without drug; viability z-score with doxorubicin: -1.12; viability z-score without drug: 0.17; Call: inactive

How did the screen score Uchl3 [SID152296442]?
combined z-score class: no change with or without drug; viability z-score with doxorubicin: 0.67; viability z-score without drug: 0.67; Call: inactive

What did the screen give for Gulo [SID152333026]?
combined z-score class: no change with or without drug; viability z-score with doxorubicin: 0.22; viability z-score without drug: 0.17; Call: inactive

With Ppp5c [SID152292062], what was measured?
combined z-score class: high cell count with doxorubicin only; viability z-score with doxorubicin: 2.47; viability z-score without drug: 1.18; Call: inactive

With Or4k51 [SID152326761], what does the deposit list?
combined z-score class: no change with or without drug; viability z-score with doxorubicin: -0.9; viability z-score without drug: -1.18; Call: inactive

Which result is listed for Ap4b1 [SID152324439]?
combined z-score class: no change with or without drug; viability z-score with doxorubicin: -1.12; viability z-score without drug: 0; Call: inactive

What did the screen give for Ap4b1 [SID152330937]?
combined z-score class: no change with or without drug; viability z-score with doxorubicin: 0.45; viability z-score without drug: 1.18; Call: inactive

What did the screen give for Brip1 [SID152281883]?
combined z-score class: no change with or without drug; viability z-score with doxorubicin: 1.8; viability z-score without drug: 0.34; Call: inactive

What did the screen give for Chst5 [SID152283781]?
combined z-score class: no change with or without drug; viability z-score with doxorubicin: 0.45; viability z-score without drug: -0.17; Call: inactive

What is on record for Cyct [SID152290151]?
combined z-score class: no change with or without drug; viability z-score with doxorubicin: 0.22; viability z-score without drug: -0.51; Call: inactive

Which result is listed for Spryd7 [SID152309768]?
combined z-score class: low cell count with doxorubicin only; viability z-score with doxorubicin: -2.92; viability z-score without drug: -1.18; Call: active

What is on record for D17H6S56E-5 [SID152262139]?
combined z-score class: no change with or without drug; viability z-score with doxorubicin: -0.67; viability z-score without drug: 0.51; Call: inactive

Which result is listed for Ptpn14 [SID152283301]?
combined z-score class: no change with or without drug; viability z-score with doxorubicin: 0.34; viability z-score without drug: 0.51; Call: inactive

Which result is listed for Cox7b [SID152263370]?
combined z-score class: no change with or without drug; viability z-score with doxorubicin: -0.45; viability z-score without drug: 1.01; Call: inactive

For Ptprf [SID152285850], how do the results read?
combined z-score class: no change with or without drug; viability z-score with doxorubicin: 1.8; viability z-score without drug: 0.34; Call: inactive

How did the screen score Kansl3 [SID152292383]?
combined z-score class: no change with or without drug; viability z-score with doxorubicin: 0.45; viability z-score without drug: -0.67; Call: inactive

For Rnf44 [SID152296815], how do the results read?
combined z-score class: no change with or without drug; viability z-score with doxorubicin: 0.56; viability z-score without drug: -0.17; Call: inactive

With Med12 [SID152310425], how do the results read?
combined z-score class: no change with or without drug; viability z-score with doxorubicin: 0.11; viability z-score without drug: 0; Call: inactive

For Npr2 [SID152317737], what was measured?
combined z-score class: no change with or without drug; viability z-score with doxorubicin: -0.45; viability z-score without drug: -0.17; Call: inactive

How did the screen score Npr2 [SID152317737]?
combined z-score class: high cell count with doxorubicin only; viability z-score with doxorubicin: 2.47; viability z-score without drug: 1.01; Call: inactive

What is on record for Vars1 [SID152261810]?
combined z-score class: no change with or without drug; viability z-score with doxorubicin: -0.9; viability z-score without drug: -0.84; Call: inactive

With Lix1 [SID152277121], what was measured?
combined z-score class: no change with or without drug; viability z-score with doxorubicin: -1.35; viability z-score without drug: -1.85; Call: inactive

With Mrpl22 [SID152341671], what does the deposit list?
combined z-score class: no change with or without drug; viability z-score with doxorubicin: 0.79; viability z-score without drug: 0.67; Call: inactive

What is on record for Gmds [SID152325274]?
combined z-score class: no change with or without drug; viability z-score with doxorubicin: -1.12; viability z-score without drug: -1.18; Call: inactive

For Serpinb9d [SID152268287], how do the results read?
combined z-score class: no change with or without drug; viability z-score with doxorubicin: -0.34; viability z-score without drug: -0.17; Call: inactive

How did the screen score Cyp3a11 [SID152274821]?
combined z-score class: no change with or without drug; viability z-score with doxorubicin: 1.57; viability z-score without drug: 0.67; Call: inactive

What is on record for Kmt2b [SID152301322]?
combined z-score class: no change with or without drug; viability z-score with doxorubicin: 0.56; viability z-score without drug: -0.17; Call: inactive

Which result is listed for Dnai7 [SID152272407]?
combined z-score class: no change with or without drug; viability z-score with doxorubicin: -1.46; viability z-score without drug: -0.67; Call: inactive

4 successive reagents from above, for reference:
Lix1 [SID152277121]: combined z-score class = no change with or without drug; viability z-score with doxorubicin = -1.35; viability z-score without drug = -1.85; Call = inactive
Mrpl22 [SID152341671]: combined z-score class = no change with or without drug; viability z-score with doxorubicin = 0.79; viability z-score without drug = 0.67; Call = inactive
Gmds [SID152325274]: combined z-score class = no change with or without drug; viability z-score with doxorubicin = -1.12; viability z-score without drug = -1.18; Call = inactive
Serpinb9d [SID152268287]: combined z-score class = no change with or without drug; viability z-score with doxorubicin = -0.34; viability z-score without drug = -0.17; Call = inactive
